Results of single-concentration screens

Sequences of proteins named here, by UniProt entry; tags and fusion partners are left off. Residues count along the entry.
UniProt I6X8D2, whole entry: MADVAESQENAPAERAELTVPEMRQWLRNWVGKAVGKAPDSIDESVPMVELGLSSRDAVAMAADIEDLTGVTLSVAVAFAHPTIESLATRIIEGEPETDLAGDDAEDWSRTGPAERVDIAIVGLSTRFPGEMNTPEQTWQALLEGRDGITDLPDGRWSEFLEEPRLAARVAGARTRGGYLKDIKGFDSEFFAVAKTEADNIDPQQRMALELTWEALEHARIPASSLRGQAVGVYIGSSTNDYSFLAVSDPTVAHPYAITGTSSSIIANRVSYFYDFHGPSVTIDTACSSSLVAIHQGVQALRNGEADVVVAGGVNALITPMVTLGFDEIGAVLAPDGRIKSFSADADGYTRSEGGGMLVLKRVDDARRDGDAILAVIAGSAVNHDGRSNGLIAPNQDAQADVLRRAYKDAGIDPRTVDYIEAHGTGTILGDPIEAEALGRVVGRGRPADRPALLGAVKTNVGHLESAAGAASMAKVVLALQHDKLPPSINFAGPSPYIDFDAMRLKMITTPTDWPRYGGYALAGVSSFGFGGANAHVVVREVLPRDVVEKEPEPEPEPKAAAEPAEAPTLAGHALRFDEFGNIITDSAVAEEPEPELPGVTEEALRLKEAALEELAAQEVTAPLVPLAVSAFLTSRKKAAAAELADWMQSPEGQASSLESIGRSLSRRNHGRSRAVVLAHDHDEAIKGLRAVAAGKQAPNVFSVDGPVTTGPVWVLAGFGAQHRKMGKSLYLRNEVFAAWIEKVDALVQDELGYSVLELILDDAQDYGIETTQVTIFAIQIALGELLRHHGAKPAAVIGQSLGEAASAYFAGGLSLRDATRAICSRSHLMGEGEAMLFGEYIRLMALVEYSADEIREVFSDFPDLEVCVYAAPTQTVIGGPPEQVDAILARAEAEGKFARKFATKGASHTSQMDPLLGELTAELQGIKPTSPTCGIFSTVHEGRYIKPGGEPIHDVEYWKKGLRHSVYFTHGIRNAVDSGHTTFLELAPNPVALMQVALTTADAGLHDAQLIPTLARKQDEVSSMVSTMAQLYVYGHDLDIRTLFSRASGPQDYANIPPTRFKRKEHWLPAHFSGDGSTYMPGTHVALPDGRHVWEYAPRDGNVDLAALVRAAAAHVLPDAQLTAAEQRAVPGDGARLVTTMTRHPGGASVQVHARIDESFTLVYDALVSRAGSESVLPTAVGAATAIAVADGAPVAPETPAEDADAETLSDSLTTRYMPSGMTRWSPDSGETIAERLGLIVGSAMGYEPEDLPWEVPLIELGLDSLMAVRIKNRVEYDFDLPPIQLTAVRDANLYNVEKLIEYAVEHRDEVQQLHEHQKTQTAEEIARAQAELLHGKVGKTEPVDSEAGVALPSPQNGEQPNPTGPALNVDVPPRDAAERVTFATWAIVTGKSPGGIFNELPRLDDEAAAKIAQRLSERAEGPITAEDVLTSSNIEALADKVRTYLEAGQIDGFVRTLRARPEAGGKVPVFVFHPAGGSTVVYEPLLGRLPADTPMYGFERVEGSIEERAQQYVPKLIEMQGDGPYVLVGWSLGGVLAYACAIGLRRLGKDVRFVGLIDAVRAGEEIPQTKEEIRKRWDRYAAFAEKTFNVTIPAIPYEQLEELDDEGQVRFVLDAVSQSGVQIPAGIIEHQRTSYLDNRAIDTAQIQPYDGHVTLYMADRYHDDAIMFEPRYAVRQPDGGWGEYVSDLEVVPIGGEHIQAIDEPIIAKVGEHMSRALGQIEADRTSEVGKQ
UniProt P9WNZ1, whole entry: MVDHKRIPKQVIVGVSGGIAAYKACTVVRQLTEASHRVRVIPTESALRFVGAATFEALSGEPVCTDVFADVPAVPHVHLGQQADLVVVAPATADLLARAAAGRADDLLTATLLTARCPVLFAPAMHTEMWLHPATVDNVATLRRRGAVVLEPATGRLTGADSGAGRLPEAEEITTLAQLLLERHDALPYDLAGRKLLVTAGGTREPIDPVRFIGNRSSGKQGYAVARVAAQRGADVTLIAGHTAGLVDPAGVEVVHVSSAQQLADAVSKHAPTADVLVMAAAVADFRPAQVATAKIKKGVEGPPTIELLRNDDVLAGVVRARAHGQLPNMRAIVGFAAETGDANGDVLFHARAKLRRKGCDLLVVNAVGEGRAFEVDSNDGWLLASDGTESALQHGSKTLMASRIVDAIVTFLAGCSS
UniProt Q8IDJ8, 1-583: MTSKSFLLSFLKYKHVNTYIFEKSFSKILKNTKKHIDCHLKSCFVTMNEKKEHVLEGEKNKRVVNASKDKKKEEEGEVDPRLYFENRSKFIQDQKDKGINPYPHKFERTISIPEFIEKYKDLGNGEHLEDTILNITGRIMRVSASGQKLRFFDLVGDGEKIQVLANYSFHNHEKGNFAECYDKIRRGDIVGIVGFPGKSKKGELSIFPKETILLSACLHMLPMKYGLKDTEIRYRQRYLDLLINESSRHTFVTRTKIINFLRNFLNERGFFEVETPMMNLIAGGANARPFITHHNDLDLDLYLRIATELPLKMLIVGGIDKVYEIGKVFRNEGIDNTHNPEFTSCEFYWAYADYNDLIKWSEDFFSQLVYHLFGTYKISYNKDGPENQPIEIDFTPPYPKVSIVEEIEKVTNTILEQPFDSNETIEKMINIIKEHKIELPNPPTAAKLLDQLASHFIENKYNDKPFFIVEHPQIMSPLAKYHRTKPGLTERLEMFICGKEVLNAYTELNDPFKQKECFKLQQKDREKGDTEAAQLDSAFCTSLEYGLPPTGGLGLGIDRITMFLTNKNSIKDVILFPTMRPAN
UniProt Q4DA54, 1-478: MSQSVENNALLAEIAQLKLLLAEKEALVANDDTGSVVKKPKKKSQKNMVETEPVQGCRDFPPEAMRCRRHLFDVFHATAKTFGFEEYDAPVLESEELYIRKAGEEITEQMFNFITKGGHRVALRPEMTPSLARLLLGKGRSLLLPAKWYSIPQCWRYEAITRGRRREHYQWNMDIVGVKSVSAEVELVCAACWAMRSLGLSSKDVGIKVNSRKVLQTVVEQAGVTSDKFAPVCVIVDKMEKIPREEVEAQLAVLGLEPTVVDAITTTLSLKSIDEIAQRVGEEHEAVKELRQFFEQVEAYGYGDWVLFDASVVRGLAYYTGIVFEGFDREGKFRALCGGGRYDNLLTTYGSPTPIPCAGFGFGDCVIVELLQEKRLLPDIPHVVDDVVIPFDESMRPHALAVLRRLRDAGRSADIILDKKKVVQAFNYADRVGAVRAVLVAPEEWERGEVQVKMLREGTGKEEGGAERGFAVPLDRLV

Measurements from “University of Dundee, Small-Polar-MMV Screening Library” (2021), ChEMBL document CHEMBL3988442.

Pks13 thioesterase: 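Enzyme assay of the thioesterase domain of polyketide synthase 13; the read-out is not stated. Target: Polyketide synthase Pks13, Mycobacterium tuberculosis (UniProt I6X8D2). Compounds at 30 µM. Higher reads as stronger inhibition (inferred from which compounds were picked for retests). Size under these conditions: about 67,000 compounds, about 300 of them at 50% or above in at least one test.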
CoaBC: 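Enzyme assay of CoaBC with a phosphate dye (Biomol Green) read at 650 nm. Target: Coenzyme A biosynthesis protein CoaBC, Mycobacterium tuberculosis (UniProt P9WNZ1). Compounds at 30 µM. Higher reads as stronger inhibition, judged from the few compounds that gave an IC50. Most strong results did not repeat in a second test. About 67,000 compounds were tested under these conditions; 0.06% (about 40) showed 50% or more at least once.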
PfKRS1: 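Lysine-tRNA ligase, Plasmodium falciparum 3D7 (UniProt Q8IDJ8). Enzyme assay of the cytosolic lysyl-tRNA synthetase in 384-well plates, read by luminescence. Compounds at 30 µM. Direction is inferred from only a few compounds that gave an IC50; most scored high, so higher reads as stronger inhibition. About 69,000 compounds were tested under these conditions; 0.071% (about 49) showed 50% or more at least once.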
TcHisRS: 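Enzyme assay of histidyl-tRNA synthetase; the read-out is not stated. Target: Histidine-tRNA ligase, Trypanosoma cruzi CL Brener (UniProt Q4DA54). Concentration: 30 µM. The record gives no direction; compounds that gave an IC50 in retests scored well above the rest, so higher reads as stronger inhibition. Size under these conditions: about 69,000 compounds, about 31 of them at 50% or above in at least one test.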

Values are the deposited “Percent Effect”, in %. How 0% and 100% were set is not recorded. Most values in the screen are low, and negative values occur. Compounds were drawn at random from those tested, without regard to their results. A dash means the value is not listed here; it may have been measured.

| # | structure | Pks13 thioesterase | CoaBC | PfKRS1 | TcHisRS |
|---|---|---|---|---|---|
| 1 | `CC(=O)c1ccc(C(=O)N2CCC(c3cc(O)nc(C)n3)CC2)s1` | -0.994% | -0.1248% | 0.5621% | 5.102% |
| 2 | `CC1CCN(C)c2ccccc2N1C(=O)c1ccc(=O)n(C)c1` (stereo unspecified) | -35.12% | - | 2.385% | 7.895% |
| 3 | `CC(NC(=O)NCCCc1n[nH]c(N)c1C#N)c1cccs1` (stereo unspecified) | 3.15% | 9.254% | 0.8888% | -4.511% |
| 4 | `CCOc1ccccc1C(C(=O)O)N(C)CC1CCOCC1` (stereo unspecified) | -11.26% | 5.732% | 4.957% | 4% |
| 5 | `CCCNc1ncc(C2CC(=O)NCc3nc4ccccn4c32)cn1` (stereo unspecified) | -10.07% | 8.73% | 1.551% | 2.041% |
| 6 | `O=C(CNc1cc2c(cc1Cl)OCCO2)NCC(F)(F)F` | -32.55% | 2.564% | 2.981% | 4.233% |
| 7 | `Cc1ncc2c(n1)CN(Cc1cccc3c1OCCO3)CC2` | -21.53% | 7.631% | 11.57% | 5.319% |
| 8 | `CCOC(=O)C1(CCOC)CCCN(Cc2nccn2CC)C1` (stereo unspecified) | -30.73% | -6.612% | 1.256% | 5.978% |
| 9 | `CN(C)C(=O)CCNC(=O)Nc1sc2ccccc2c1Cl` | 10% | -8.884% | -0.08027% | 7.937% |
| 10 | `Cc1nc2cc(O)nn2c(C)c1CCC(=O)NCCCC(C)C` | -5.102% | 0.3871% | 10.04% | 3.448% |
| 11 | `O=C(NC1CCCN(c2ccc(OC(F)F)cc2)C1)c1cnccn1` (stereo unspecified) | -33.9% | - | 4.037% | 5.195% |
| 12 | `O=c1cc2c(nn1CN1CCN(c3ccccc3)CC1)CCCC2` | -12.45% | 1.272% | 4.651% | 6.024% |
| 13 | `Cc1nccn1CCCN1CCCC(c2nccn2CC2CCC2)C1` (stereo unspecified) | -10.45% | -0.9709% | -0.6878% | 14.07% |
| 14 | `CCc1nccn1CC(=O)N1C[C@H]2CC[C@@H]1CN(S(=O)(=O)N(C)C)C2` | -22.67% | 6.601% | 2.23% | 7.65% |
| 15 | `Cc1c(C(=O)NCC(C)C)nnn1-c1cccc2c1CCN(C(C)C)C2` | 16.79% | 4.132% | 5.65% | 10% |
| 16 | `CN(C)S(=O)(=O)NCc1nc(-c2cccc(F)c2)c(-c2ccccn2)[nH]1` | -33.5% | 15.6% | 4.266% | 10.31% |
| 17 | `CC(=O)N1N=C(c2ccccc2)OC1C(=O)NCCc1cccc(F)c1` (stereo unspecified) | -11.22% | 4.126% | 5.234% | 1.136% |
| 18 | `O=C(C1CC=CC1)N1CCC2(CC1)CNCCO2` | -22.8% | - | -0.5961% | 4.908% |
| 19 | `CCCN(CCC)Cc1nnsc1Cl` | -33.93% | - | 2.162% | 5.263% |
| 20 | `Cc1ccc(N2C(=O)N[C@@H]3CCN(C(=O)C4CCCC4)[C@@H]3C2=O)cc1` | 5.395% | 8.804% | 7.4% | 2.97% |
| 21 | `Cc1noc(C)c1CN1CC2(CCN(C(=O)c3cscn3)CC2)CC1=O` | - | 9.545% | 5.1% | 0.8368% |
| 22 | `Cc1noc(C(C)N2CCc3[nH]c4ccc(Cl)cc4c3C2)n1` (stereo unspecified) | 6.078% | -8.76% | 0.9509% | 8% |
| 23 | `Cc1cc(NC(=O)NCc2cccnc2OC(C)C)no1` | -20.2% | -4.307% | -0.854% | 2.035% |
| 24 | `Cc1ccc(C(=O)N2CC3(CCNCC3)c3cc(Cl)ccc32)cn1` | -16.3% | 5.882% | 5.215% | 8.173% |
| 25 | `Cc1n[nH]c(C)c1CN(C)C(C(=O)O)c1ccc2c(c1)OCO2` (stereo unspecified) | -43.29% | 1.481% | 1.42% | 6.468% |
| 26 | `CCN(Cc1cccc(C(=O)Nc2ncc(C)s2)c1)[C@H]1COC[C@@H]1O` | -14.47% | 0% | 5.81% | 1.064% |
| 27 | `COCCC(=O)NC(C)(C(N)=O)c1cccc(Cl)c1` (stereo unspecified) | -3.393% | 2.67% | -1.591% | 7.921% |
| 28 | `NC(=O)c1cccc(CNC(=O)NCCOc2ccc(F)c(F)c2)c1` | -19.37% | 3.526% | 5.885% | 0.9852% |
| 29 | `O=C(c1ccc(-n2ccnc2)nn1)N1CCCCC1Cn1cccn1` (stereo unspecified) | - | 3.566% | 4.531% | 5.051% |
| 30 | `Cc1cccn2c(=O)cc(CN3CCCC3Cn3cccn3)nc12` (stereo unspecified) | -3.76% | 3.004% | 5.35% | 8.14% |
| 31 | `Cc1cc(N[C@H]2CN(CC(C)(C)N3CCOCC3)C[C@@H]2C2CC2)ncn1` | 0.2277% | -1.378% | 7.238% | 3.077% |
| 32 | `CC(C)Nc1nc(O)cc(C(C)n2ncc3ccccc3c2=O)n1` (stereo unspecified) | -3.844% | -1.675% | 1.21% | 3.448% |
| 33 | `Cn1ccnc1CN1CCC(Cn2cc(-c3ccccc3)nn2)CC1` | 1.173% | -1.844% | 2.714% | 2.128% |
| 34 | `CS(=O)(=O)CCCSCc1ccc(Br)c(F)c1` | 4.18% | -0.8464% | 0.1998% | 0.6494% |
| 35 | `CC(=O)N1CCN(C2CCCCc3ccccc32)CC1` (stereo unspecified) | -7.056% | -3.6% | 7.053% | 3.448% |
| 36 | `Cc1nc(C)n(CC2CCCCN2Cc2cn3ccccc3n2)n1` (stereo unspecified) | -6.505% | 1.567% | 2.287% | 0.565% |
| 37 | `COc1ccc2nc(CNC(=O)c3cc(C(C)C)on3)[nH]c2c1` | -13.2% | -1.737% | 1.701% | 8.671% |
| 38 | `CN1CCN(C(=O)[C@H]2C[C@@H]3CCN(c4ncc(F)cn4)C[C@@H]3O2)CC1` | 0.1072% | 2.665% | 3.346% | -1.622% |
| 39 | `CCN(CC)c1ccc(NC(=O)NC(C)Cn2cccn2)cn1` (stereo unspecified) | -24.05% | 5.72% | 0.7197% | 7.407% |
| 40 | `CCN(C(C)=O)c1nc(CN2CCCC2Cn2cncn2)cs1` (stereo unspecified) | -32.64% | 7.871% | -3.685% | 10.92% |
| 41 | `COc1ccc(OCc2cc(C(=O)N3CCCCO3)n[nH]2)c(Cl)c1` | -7.377% | 2.036% | 5.876% | 1.205% |
| 42 | `CCC(CC)c1cc(C(=O)N2CCCC(n3cncn3)C2)on1` (stereo unspecified) | -6.688% | 4.219% | -0.4104% | -1.626% |

The last 3 entries again:

{"structure": "CCN(C(C)=O)c1nc(CN2CCCC2Cn2cncn2)cs1", "stereo": "stereo unspecified", "Pks13 thioesterase": -32.64, "CoaBC": 7.871, "PfKRS1": -3.685, "TcHisRS": 10.92}
{"structure": "COc1ccc(OCc2cc(C(=O)N3CCCCO3)n[nH]2)c(Cl)c1", "Pks13 thioesterase": -7.377, "CoaBC": 2.036, "PfKRS1": 5.876, "TcHisRS": 1.205}
{"structure": "CCC(CC)c1cc(C(=O)N2CCCC(n3cncn3)C2)on1", "stereo": "stereo unspecified", "Pks13 thioesterase": -6.688, "CoaBC": 4.219, "PfKRS1": -0.4104, "TcHisRS": -1.626}